Experimental data taken from patent US20170189524A1 (IMMUNOQURE, published 2017).
Results are given in words; binding and its absence hold for the method and conditions named. Binding can be weak; no strength is given.

Key:
[1] = biological target: T1, Type I IL-20 receptor (IL-20RA/IL-20RB) on transfected HEK 293T MSR cells (human) (UniProt Q9UHF4); assay: chemiluminescent cellular binding assay (LCBA)
T1 sequence (looked up) 1: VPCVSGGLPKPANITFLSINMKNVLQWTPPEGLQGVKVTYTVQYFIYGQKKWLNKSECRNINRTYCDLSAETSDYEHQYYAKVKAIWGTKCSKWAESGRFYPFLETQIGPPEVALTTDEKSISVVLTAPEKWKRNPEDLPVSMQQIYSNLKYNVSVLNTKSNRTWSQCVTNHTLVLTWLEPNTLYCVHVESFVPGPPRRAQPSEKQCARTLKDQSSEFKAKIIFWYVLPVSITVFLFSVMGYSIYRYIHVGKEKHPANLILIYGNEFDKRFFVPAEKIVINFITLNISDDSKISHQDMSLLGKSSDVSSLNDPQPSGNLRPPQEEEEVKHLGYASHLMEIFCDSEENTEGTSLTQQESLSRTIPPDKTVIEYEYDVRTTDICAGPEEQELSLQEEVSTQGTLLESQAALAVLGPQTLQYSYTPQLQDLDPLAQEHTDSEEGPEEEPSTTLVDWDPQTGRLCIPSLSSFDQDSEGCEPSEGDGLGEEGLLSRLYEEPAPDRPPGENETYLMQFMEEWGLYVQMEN
T1 sequence (looked up) 2: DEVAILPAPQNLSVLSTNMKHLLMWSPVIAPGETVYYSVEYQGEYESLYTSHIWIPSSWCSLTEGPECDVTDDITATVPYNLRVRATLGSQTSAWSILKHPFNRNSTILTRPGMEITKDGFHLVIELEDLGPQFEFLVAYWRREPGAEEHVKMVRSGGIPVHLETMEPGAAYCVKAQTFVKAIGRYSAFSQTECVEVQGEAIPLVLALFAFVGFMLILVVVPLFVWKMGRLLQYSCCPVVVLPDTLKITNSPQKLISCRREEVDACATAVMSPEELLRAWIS

[2] = biological target: T1, Type I IL-20 receptor (IL-20RA/IL-20RB) on transfected HEK 293T MSR cells (human); assay: LCBA (FIG. 7D)
[3] = biological target: g1 IL-20 (fusion protein of human IL-20 with Gaussia luciferase at the IL-20 N-terminus) (human); assay: EC 50 ELISA (FIG. 3)
[4] = biological target: g1 IL-20 (fusion protein of human IL-20 with Gaussia luciferase at the IL-20 N-terminus) (human); assay: GLuc-sandwich ELISA
[5] = biological target: g1 IL-20 (fusion protein of human IL-20 with Gaussia luciferase at the IL-20 N-terminus) (human); assay: LCBA, antibody 5 µg/ml (FIG. 7F)
[6] = biological target: g1 IL-20 (fusion protein of human IL-20 with Gaussia luciferase at the IL-20 N-terminus) (human); assay: LCBA
[7] = biological target: g1 IL-20 (fusion protein of human IL-20 with Gaussia luciferase at the IL-20 N-terminus) (human); assay: chemiluminescent cellular binding assay, IC 50 analysis (FIG. 8)
[8] = biological target: g1 IL-20 (fusion protein of human IL-20 with Gaussia luciferase at the IL-20 N-terminus) (human); assay: LCBA (FIG. 7E, 7F)

Measured: binding

g1 IL-20 (fusion protein of human IL-20 with Gaussia luciferase at the IL-20 N-terminus) (ligand)
binds: [1] | [2]

B1: antibody 6E11 (antibody, IgG1, V domains shown)
VH: QVQLVQSGAEVKKPGSSVKVSCKASGGTFRNYAINWVRQAPRQGLEWMGSLVPMFTSPTYAQKFRGRVTISADESTATSSMELTSLTSEDTAVYFCSADGYKGGLFYGMNVWGQGTTVTVSS
VL: DIVLTQSPESLAVSLGERATINCKSSQSVLYSSNSKNYLAWFQQKPGQPPKLLIYWASTRESGVPDRFSGSGSGTDFTLTITSLQAEDVAVYYCHQYHTLPRTFGHGTKVEIKR
notes: IgG1; also called MAb 6E11
binds: [3] | [4] | [5]

B2: antibody 20A10 (antibody, human IgG4, kappa, V domains shown)
VH: QVQLVQSGAEVKKPGSSVKVSCKTSGGTFSTSTLSWVRQAPGQGLEWLGGMIPILSRTTYAQKFQGRLTITADEPTSTSYMELSSLKSEDTAVYYCATEGEVSAAHNYYYGMDVWGQGTTVTVSS
VL: DIVLTQSPLYLPVTPGEPASISCRSSQSLLHGNGHNYLDWYLQKPGQSPQLLIYLGSNRASGVPDRFSGSGSGTDFTLKISRVEAEDVGVYYCMQTLHTVFTFGPGTRVDIKR
notes: Recombinant human-derived antibody; also called MAb 20A10; 20A0
binds: [6] | [3] | [7] | [4] | [8]
